Some of the results follow. These are raw signals, not scaled to a control.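 First-pass screen: polymyxin B was added at a level that permeabilizes the Salmonella outer membrane while sparing the inner membrane. DMSO wells, with and without polymyxin B, defined maximum growth. Because plates differed from one another, each plate's data were ranked separately and the compounds with the lowest OD600 were carried forward as hits.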
System: Salmonella enterica serovar Typhimurium SL1344
Experiment: bacterial growth OD600 after 18 h with compound and polymyxin B; higher = more bacterial growth (less inhibition)
Conditions: 50 µM, Mueller-Hinton broth

Question: Which “bacterial growth OD600” value (polymyxin B 0.75 µg/mL) does the source give for `Cc1ccccc1-c1cnnc(N2CCOCC2)n1` here?
Answer: 0.874

Question: With `O=C(c1cc(COc2ccccc2F)[nH]n1)N1CCOCC1` as the compound, how does the “bacterial growth OD600” value (polymyxin B 1 µg/mL) read?
Answer: 0.828

Question: How did the “bacterial growth OD600” value (polymyxin B 1 µg/mL) turn out when `COc1ccccc1OCc1cc(C(=O)NC2(c3ccccc3)CC2)n[nH]1` was run?
Answer: 1.02

Question: Which “bacterial growth OD600” value (polymyxin B 0.75 µg/mL) does the source give for `COc1cccc(C2c3[nH]c4ccccc4c3CCN2Cc2ccc(CO)o2)c1OC` (configuration not stated) here?
Answer: 0.842

Question: With `O=C(Nc1ccnn1C1CCN(C(=O)CCOc2ccccc2)CC1)C1CCOC1` (configuration not stated) as the compound, how does the “bacterial growth OD600” value (polymyxin B 1 µg/mL) read?
Answer: 1.01

Question: How did the “bacterial growth OD600” value (polymyxin B 0.75 µg/mL) turn out when `COCc1ccc(CN2CCOc3ccc(CN4CCC(OCc5ccccc5)CC4)cc3C2)o1` was run?
Answer: 0.705

Question: For `CCOC(=O)C1(CC2CCCCO2)CCN(S(=O)(=O)c2cc(F)c(F)cc2F)CC1` (configuration not stated), which “bacterial growth OD600” value (polymyxin B 0.75 µg/mL) is on record?
Answer: 0.593

Question: For `O=C(NCCCC1CCCC1)C1CCCN(C2CCN(C(=O)C3CC3)CC2)C1` (configuration not stated), which “bacterial growth OD600” value (polymyxin B 0.75 µg/mL) is on record?
Answer: 0.562

Question: For `O=C(c1cccnc1)N1CCC(Oc2ccccc2C(=O)N2CCCCCC2)CC1`, which “bacterial growth OD600” value (polymyxin B 1 µg/mL) is on record?
Answer: 1.24

Question: `COc1cccc(-c2nc3ccc(C(=O)N(C)CCC4CCCCO4)cc3o2)c1` (configuration not stated) was tested. Which “bacterial growth OD600” value (polymyxin B 1 µg/mL) did it give?
Answer: 0.932

Question: Which “bacterial growth OD600” value (polymyxin B 0.75 µg/mL) does the source give for `Cc1csc(C(C)NC(=O)c2cc(NS(=O)(=O)N(C)C)cc3nc(CC(C)C)n(C)c23)n1` (configuration not stated) here?
Answer: 0.842

Question: With `Cc1ccc(CNC2CCCc3nc(N4CCC(CO)CC4)ncc32)s1` (configuration not stated) as the compound, how does the “bacterial growth OD600” value (polymyxin B 0.75 µg/mL) read?
Answer: 0.822

Question: Which “bacterial growth OD600” value (polymyxin B 1 µg/mL) does the source give for `O=C(N1CCN(CCO)CC1)C1(N2CCCCC2)Cc2ccccc2C1` here?
Answer: 1.05

Question: How did the “bacterial growth OD600” value (polymyxin B 0.75 µg/mL) turn out when `Cc1csc(C(C)N(C)C(=O)CC2(c3ccc(-c4ccccc4)cc3)CC(=O)N(C)C2=O)n1` (configuration not stated) was run?
Answer: 0.011

Question: `CCS(=O)(=O)N1C[C@H]2OC(=O)N(CCc3cccc(Cl)c3)[C@H]2C1` was tested. Which “bacterial growth OD600” value (polymyxin B 1 µg/mL) did it give?
Answer: 1

Question: `COc1ccccc1-c1ccnc(-n2ncc(C(=O)NC3CCCC3)c2C2CC2)n1` was tested. Which “bacterial growth OD600” value (polymyxin B 0.75 µg/mL) did it give?
Answer: 0.759

Question: For `Cc1c(C(=O)NCC(C)C)sc2ncnc(NC[C@H]3C[C@@H]4C=C[C@H]3C4)c12`, which “bacterial growth OD600” value (polymyxin B 0.75 µg/mL) is on record?
Answer: 0.01

Question: How did the “bacterial growth OD600” value (polymyxin B 1 µg/mL) turn out when `CC(C)N(CCO)Cc1cn(Cc2ccccc2)nc1-c1cc2ccccc2o1` was run?
Answer: 0.831

Question: With `COC(=O)c1ccc(-c2nc(CN(CCO)Cc3cccs3)c(C)o2)cc1` as the compound, how does the “bacterial growth OD600” value (polymyxin B 1 µg/mL) read?
Answer: 0.798

Question: How did the “bacterial growth OD600” value (polymyxin B 1 µg/mL) turn out when `COc1cccc(CN2CCN(Cc3cc4ccccc4o3)CC2CCO)c1` (configuration not stated) was run?
Answer: 0.965

Question: `CCN(CCO)C(=O)CCC1(Cc2ccc(OC)c3ccccc23)CCC(=O)N1` (configuration not stated) was tested. Which “bacterial growth OD600” value (polymyxin B 0.75 µg/mL) did it give?
Answer: 1.03

Question: `O=C(C1CC(Cc2cccc(Cl)c2)=NO1)N1CCN(c2ncc3ccccc3n2)CC1` (configuration not stated) was tested. Which “bacterial growth OD600” value (polymyxin B 0.75 µg/mL) did it give?
Answer: 0.905

Question: Which “bacterial growth OD600” value (polymyxin B 0.75 µg/mL) does the source give for `C=CCS(=O)(=O)N1CCC(C2CCN(CCc3ccccc3)C2)CC1` (configuration not stated) here?
Answer: 0.727

Question: `CCC1CN(Cc2ccc3c(c2)CCO3)Cc2cc(OC)ccc2O1` (configuration not stated) was tested. Which “bacterial growth OD600” value (polymyxin B 0.75 µg/mL) did it give?
Answer: 0.751

Question: With `Cc1cc(C(=O)N2CCc3[nH]nc(-c4ccc(Cl)cc4)c3C2)n(C)n1` as the compound, how does the “bacterial growth OD600” value (polymyxin B 0.75 µg/mL) read?
Answer: 0.494

Question: How did the “bacterial growth OD600” value (polymyxin B 1 µg/mL) turn out when `COC1CCCN(C(=O)c2cc(COc3ccc4c(c3)CCCC4)on2)C1` (configuration not stated) was run?
Answer: 0.952

Question: `Cc1ccccc1CCC1CCCN(C(=O)c2cc(=O)n(C)c(=O)n2C)C1` (configuration not stated) was tested. Which “bacterial growth OD600” value (polymyxin B 0.75 µg/mL) did it give?
Answer: 0.682

Question: For `COc1ccc(-c2noc(CN3CCCC(c4ccccc4)C3)n2)c(OC)c1OC` (configuration not stated), which “bacterial growth OD600” value (polymyxin B 1 µg/mL) is on record?
Answer: 1.12

Question: For `O=C1CCC(CCNCCOc2ccc(F)cc2)N1Cc1nc(-c2ccccc2)cs1` (configuration not stated), which “bacterial growth OD600” value (polymyxin B 0.75 µg/mL) is on record?
Answer: 0.815

Question: How did the “bacterial growth OD600” value (polymyxin B 0.75 µg/mL) turn out when `Cc1ccoc1C(=O)N1CCC(C2CCN(c3ncccn3)CC2)C1` (configuration not stated) was run?
Answer: 0.842

Question: How did the “bacterial growth OD600” value (polymyxin B 0.75 µg/mL) turn out when `C=CCC(=O)N1CCc2onc(-c3ccc(F)c(F)c3)c2C1` was run?
Answer: 0.918

Question: `OCC1(Cc2ccccc2)CCCN(Cc2cnn(-c3ccccc3Cl)c2)C1` (configuration not stated) was tested. Which “bacterial growth OD600” value (polymyxin B 1 µg/mL) did it give?
Answer: 0.847

Reference: the supplement of paper PMC12889115
